No constants are given. Whether binding was seen depends on the method and setting. In cells and extracts the contact can be indirect. Some results given as binding are weak or reduced against the parent protein; the word gives no strength.
Target: Mcl-1 (human (endogenous in HCT116 and LS174T)), Q07820
Assay: co-IP; beads precoated with anti-Mcl-1 (anti-Gal4 as control), 500 ug of HCT116 or LS174T cell lysate, overnight at 4°C; lysis buffer pH 7.4, 20 mM Tris-HCl, 150 mM NaCl, 1 mM EDTA, 1% Triton X100; cells treated with sn38 and/or GSK690693 for 72 hr; blot for Noxa
Settings: remark: other sources report otherwise

B1: Noxa, Q13794 1-54 (protein)
chain: MPGKKARKNAQPSPARAPAELEVECATQLRRFGDKLNFRQKLLNLISKLFCSGT
binding: binds

Reference: PMC4791236
